Source: PubChem BioAssay AID493014 (National Center for Advancing Translational Sciences (NCATS), 2011)
The list shows a part of the results. The main result of the screen is listed elsewhere. These columns were measured beside it and carry no call. Compounds called inactive in the main read-out are mostly missing here. Words in brackets tell the shape of the fitted curve; partial curves, single points and poor fits give uncertain potencies.

Experiment: qHTS Assay to Find Inhibitors of Chronic Active B-Cell Receptor Signaling
Details: ABC-DLBCL IkBa-CBG/CBR reporter, luminescence ratio (green luciferase fused to IkBa over red control in TMD8 lymphoma cells), 4 h
Procedure, shortened: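 TMD8 ABC-DLBCL cells carrying doxycycline-inducible green luciferase fused to IkappaBalpha plus unfused red luciferase were exposed to compounds (up to 46 uM) for 4 hrs at 37C. Activity came from the overlap-corrected green/red luminescence ratio.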

[1] = measured here: CBR red luminescence, cell number
[2] = measured here: IkBa-CBG green luminescence

SMILES | AC50 [1] | AC50 [2]
CN1c2ccsc2C(O)=C(C(=S)Nc2ccc(F)c(Cl)c2)S1(=O)=O | 29.1 µM [falling, single point] | 
N#C/C(=N\Nc1ccc(F)cc1)C(=O)C1CC1 | 0.891 µM [rising, full curve, poor fit] | 
COc1cccc(NC(=O)CSc2nc3c(sc4ccccc43)c(=O)n2CCN(C)C)c1 | 2.24 µM [falling, partial curve, poor fit] | 
COc1ccc(-n2cc(CNCCc3cnc[nH]3)c(-c3cccc(F)c3)n2)cc1 | 35.5 µM [falling, single point] | 
COc1cc(C(=O)N[C@H](C(=O)OCC(=O)NC2CCCCCC2)C(C)C)cc(OC)c1OC | 3.66 µM [rising, partial curve, poor fit] | 4.61 µM [falling, single point]
CCCCCCCOC(=O)C[N+](C)(C)CCOC1CC2CCC1(C)C2(C)C (stereo not drawn) | 29.1 µM [falling, single point] | 
CCCCN(CCCC)c1nc(OC)nc(-n2nnc(C(C)=O)c2C)n1 | 15.8 µM [falling, partial curve] | 
Cc1ccc(-n2nnnc2SCC(=O)c2ccc3c(c2)NC(=O)CO3)c(C)c1 | 0.116 µM [rising, full curve, poor fit] | 
C=CCn1c(C)cc(C(=O)CSc2nnc(NCc3ccccc3)s2)c1C | 17.8 µM [rising, single point] | 17.8 µM [falling, partial curve, poor fit]
CCN(Cc1ccccc1)C(=O)Cn1c(=O)oc2ccccc21 | 6.31 µM [rising, single point] | 
CC(C)C(=O)Nc1nc2c(c(=O)[nH]1)CCCC2 | 10 µM [falling, partial curve] | 
CCOc1ccccc1C(=O)OCC(=O)Nc1cc(Cl)ccc1Oc1ccccc1 | 8.2 µM [falling, partial curve, poor fit] | 
COc1cccc2c1O/C(=N\O)C(C(=O)Nc1cccc(Br)c1)C2 (stereo not drawn) | 14.1 µM [falling, single point] | 
Nc1nc(O)c(CC(=O)O)s1 | 35.5 µM [rising, single point] | 
O=C(Cc1ccccc1F)c1ccc(O)cc1O | 22.4 µM [rising, partial curve, poor fit] | 
O=C(CCOc1ccccc1)Nc1ccc(Br)cc1 | 2 µM [rising, full curve] | 
Cc1ccn2cc(-c3cccc([N+](=O)[O-])c3)nc2c1 | 17.8 µM [falling, single point] | 
COc1cc(/C=N/NC(=O)Nc2ccccc2)ccc1OC(C)=O |  | 23.1 µM [falling, single point]
O=C(Nc1ccc(F)cc1)N1CCN2C(=O)c3ccccc3C12c1ccccc1 (stereo not drawn) | 16.4 µM [falling, single point] | 
COC(=O)c1cc2nc(-c3ccc(OC)c(OC)c3)cc(C(F)(F)F)n2n1 | 10 µM [rising, single point] | 
O=C(O)c1nn2cc(CCO)cnc2c1Cl | 14.1 µM [falling, single point] | 

Exported comma-delimited: 2 of the compounds above
SMILES,AC50 [1],AC50 [2]
N#C/C(=N\Nc1ccc(F)cc1)C(=O)C1CC1,"0.891 µM [rising, full curve, poor fit]",
COc1cccc(NC(=O)CSc2nc3c(sc4ccccc43)c(=O)n2CCN(C)C)c1,"2.24 µM [falling, partial curve, poor fit]",

Further structures

SMILES | AC50 [1] | AC50 [2]
COc1ccc(F)cc1C(=O)C1CCCN(Cc2c[nH]c3ccccc23)C1 (stereo not drawn) | 7.08 µM [falling, partial curve] | 
CN1/C(=c2/s/c(=C3/C(=O)N(c4ccccc4)NC3=Nc3ccccc3)n(C)c2=O)C(C)(C)c2ccccc21 | 6.51 µM [falling, single point] | 
COc1ccccc1CN(Cc1cc2cc(C)cc(C)c2[nH]c1=O)Cc1nnnn1CC1CCCO1 (stereo not drawn) | 14.1 µM [falling, single point] | 
COc1ccc(CNC(=O)COC(=O)c2cnccn2)cc1 | 1.03 µM [rising, full curve, poor fit] | 
O=C(CC(Nc1ccc(F)cc1)c1ccccc1)c1ccccc1 (stereo not drawn) | 1.84 µM [falling, partial curve, poor fit] | 
CCOc1cc(N2CCOCC2)c(OCC)cc1NC(=O)c1ccc2ncsc2c1 | 2.91 µM [rising, partial curve, poor fit] | 
O=C(NCCN1CCOCC1)c1cccnc1SCc1ccccc1Cl | 2.51 µM [rising, partial curve, poor fit] | 
CCCc1[nH]nc2c1C(C1CC=CCC1)C(C#N)=C(N)O2 (stereo not drawn) | 16.4 µM [falling, single point] | 
COc1ccccc1NC(=S)N1CCCC1 | 7.31 µM [rising, partial curve] | 
CN(C)/N=C/c1c(O)ccc2ccccc12 | 20.6 µM [rising, single point] | 
COc1ccc(CN(C)C(=O)C(Cc2ccccc2)NC(=O)c2ccccc2)cc1F (stereo not drawn) | 20.6 µM [falling, partial curve] | 
CN(C)c1cccc(/C=C(\C#N)c2ccccc2)c1 | 25.1 µM [falling, single point] | 22.4 µM [falling, single point]
COc1cc(S(=O)(=O)n2ccc(C)n2)ccc1Cl | 11.2 µM [rising, partial curve] | 
CN(CC(=O)Nc1ccc(F)cc1)C(=O)CSc1nncs1 | 1.78 µM [falling, partial curve] | 
CCOC(=O)C(=O)/C(C#N)=C/Nc1ccccc1 | 6.51 µM [falling, single point] | 
O=C(Nc1ccc(F)cc1)N(Cc1ccco1)Cc1cc2cc3c(cc2[nH]c1=O)OCO3 | 13 µM [falling, partial curve] | 9.2 µM [rising, partial curve, poor fit]
COc1ccc(OCC(=O)Nc2sc3c(c2C(=O)NCC2CCCO2)CCC3)cc1 (stereo not drawn) | 17.8 µM [rising, partial curve, poor fit] | 
CCOC(=O)N1CCN(C(=O)c2ccc(C#CC3(O)CCCCC3)cc2)CC1 | 18.4 µM [rising, single point] | 
O=C(N/N=C/c1cccs1)c1ccc2ccccc2c1 | 15.8 µM [falling, single point] | 
NS(=O)(=O)c1cccc(NC(=O)CSc2ncnc3ccccc23)c1 | 11.2 µM [falling, partial curve] | 
CC(=C/c1ccccc1)/C=N/n1c(C)n[nH]c1=S | 35.5 µM [falling, single point] | 28.2 µM [falling, single point]

SMILES | AC50 [1] | AC50 [2]
COc1ccc(-c2coc3cc(O)cc(O)c3c2=O)cc1OC | 6.31 µM [rising, partial curve, poor fit] | 
CC(=O)Oc1c(-c2ccco2)oc2ccccc2c1=O | 12.6 µM [falling, partial curve] | 
CCOc1ccc(-c2nc3ccccc3c(=O)o2)cc1 | 4.47 µM [falling, partial curve] | 
CCCC1(C(=O)O)NC(c2cccc(OC)c2O)C2C(=O)N(c3ccccc3)C(=O)C21 (stereo not drawn) | 20.6 µM [falling, single point] | 
O=C(CN1C(=O)c2ccccc2C1=O)OCC(=O)c1ccccc1 | 14.6 µM [rising, partial curve, poor fit] | 
COc1ccc(OC)c(CNC(=O)CCc2cn(C)c3ccccc23)c1 | 15.8 µM [falling, single point] | 
Cc1ccc(C(=O)NNC(=O)C(C)Oc2ccc3ccccc3c2)o1 (stereo not drawn) | 23.1 µM [rising, partial curve, poor fit] | 
COc1cccc2cc(C(=O)OCC(=O)N3CC(C)OC(C)C3)c(=O)oc12 (stereo not drawn) | 0.461 µM [falling, full curve, poor fit] | 
O=C(N/N=C/c1ccc(OCc2ccccc2)cc1)c1ccc(O)cc1 | 2.24 µM [falling, partial curve, poor fit] | 
CS(=O)(=O)Nc1ccc(C(=O)Nc2ccc3ccccc3c2)cc1 | 17.8 µM [falling, single point] | 
O=C(NCC1CCCO1)C(=Cc1cccc([N+](=O)[O-])c1)C(=O)NCC1CCCO1 (stereo not drawn) | 18.4 µM [falling, partial curve] | 
CCOC(=O)c1c(C)[nH]c(C(=O)OCC(=O)Nc2ccc(OCC)cc2)c1C | 10.3 µM [falling, single point] | 
C#CCNC(=O)C1=C[C@H](c2coc3ccccc3c2=O)C[C@H](OCc2ccc(CO)cc2)O1 | 35.5 µM [falling, single point] | 
Cc1cc(C)c(C#N)c(SCC(=O)N(CCC#N)c2ccc3c(c2)OCCO3)n1 | 6.51 µM [rising, full curve, poor fit] | 
C[C@H]1CN=C(Nc2ccccc2)N1CCCC1CCCCC1 | 20 µM [falling, partial curve, poor fit] | 
Cc1ccc(NC(=O)COC(=O)CCc2c(C)nc3ncnn3c2C)cc1C | 0.103 µM [rising, full curve, poor fit] | 
CSc1ccccc1NC(=O)Nc1ccccc1 | 7.31 µM [falling, partial curve, poor fit] | 
COc1cc(NC(=O)CN(c2cc(C)cc(C)c2)S(=O)(=O)c2c(C)[nH]c(=O)[nH]c2=O)cc(OC)c1 | 35.5 µM [falling, partial curve, poor fit] | 
Cc1ccc(S(=O)(=O)/N=C2\C=C(Nc3cccc(C(=O)O)c3)C(=O)c3ccccc32)cc1 | 5.01 µM [falling, full curve, poor fit] | 
O=C(Nc1nc2c(Br)cccc2s1)C1CC1 | 20 µM [falling, partial curve, poor fit] | 
COc1cccc(NC(=O)COC(=O)C2CC(=O)N(c3ccc(C)cc3)C2)c1 (stereo not drawn) | 3.26 µM [rising, full curve] | 
